Experimental data published in patent US20170313758A1, “Polypeptides for the Treatment of Angiogenesis or Lymphangiogenesis-Related Diseases” (INSERM (Institut National de la Sante et de la Recherche …, priority 2014, published 2017).
These are yes or no findings as the source states them, for the method shown. For some assays here: Binding seen in cells or lysates may run through a third protein. Some binding calls cover weakened binding; strength is not graded here.

The chains behind the UniProt entries cited, without tags or fusion partners. Where a name states a change or a piece, a line headed by the entry shows the natural chain unless it says otherwise.
UniProt P35968: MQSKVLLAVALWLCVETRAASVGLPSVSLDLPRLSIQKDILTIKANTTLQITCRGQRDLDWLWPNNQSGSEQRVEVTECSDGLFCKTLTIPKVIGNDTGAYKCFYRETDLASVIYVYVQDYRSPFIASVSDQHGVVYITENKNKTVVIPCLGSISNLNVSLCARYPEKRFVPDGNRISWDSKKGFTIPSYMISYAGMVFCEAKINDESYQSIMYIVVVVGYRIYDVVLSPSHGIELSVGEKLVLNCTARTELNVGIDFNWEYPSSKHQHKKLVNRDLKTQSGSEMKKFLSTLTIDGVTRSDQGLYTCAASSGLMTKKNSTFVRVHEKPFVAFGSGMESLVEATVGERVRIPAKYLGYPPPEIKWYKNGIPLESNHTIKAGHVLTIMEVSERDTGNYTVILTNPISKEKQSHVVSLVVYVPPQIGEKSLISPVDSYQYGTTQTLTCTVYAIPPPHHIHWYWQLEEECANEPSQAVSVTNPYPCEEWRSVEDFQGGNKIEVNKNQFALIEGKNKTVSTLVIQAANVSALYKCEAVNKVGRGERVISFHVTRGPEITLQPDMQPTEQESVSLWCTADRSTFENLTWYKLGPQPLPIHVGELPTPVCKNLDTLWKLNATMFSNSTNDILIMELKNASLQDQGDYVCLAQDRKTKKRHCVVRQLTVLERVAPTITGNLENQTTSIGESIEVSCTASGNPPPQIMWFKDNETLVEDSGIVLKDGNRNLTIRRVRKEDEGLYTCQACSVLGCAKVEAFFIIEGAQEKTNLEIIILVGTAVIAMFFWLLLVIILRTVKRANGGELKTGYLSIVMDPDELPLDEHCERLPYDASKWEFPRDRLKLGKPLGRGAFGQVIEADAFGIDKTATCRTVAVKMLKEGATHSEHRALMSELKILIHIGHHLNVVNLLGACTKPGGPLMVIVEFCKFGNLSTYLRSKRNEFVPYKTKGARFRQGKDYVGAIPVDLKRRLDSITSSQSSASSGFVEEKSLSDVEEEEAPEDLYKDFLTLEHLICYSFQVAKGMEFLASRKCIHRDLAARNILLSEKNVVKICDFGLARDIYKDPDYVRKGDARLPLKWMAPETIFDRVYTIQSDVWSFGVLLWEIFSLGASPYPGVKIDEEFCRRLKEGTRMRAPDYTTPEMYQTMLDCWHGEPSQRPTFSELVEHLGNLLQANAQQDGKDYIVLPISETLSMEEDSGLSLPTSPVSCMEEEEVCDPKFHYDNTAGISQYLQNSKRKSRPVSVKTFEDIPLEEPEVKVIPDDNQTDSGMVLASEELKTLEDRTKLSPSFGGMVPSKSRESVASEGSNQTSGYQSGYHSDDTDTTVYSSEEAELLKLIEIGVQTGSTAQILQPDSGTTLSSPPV
UniProt P35613: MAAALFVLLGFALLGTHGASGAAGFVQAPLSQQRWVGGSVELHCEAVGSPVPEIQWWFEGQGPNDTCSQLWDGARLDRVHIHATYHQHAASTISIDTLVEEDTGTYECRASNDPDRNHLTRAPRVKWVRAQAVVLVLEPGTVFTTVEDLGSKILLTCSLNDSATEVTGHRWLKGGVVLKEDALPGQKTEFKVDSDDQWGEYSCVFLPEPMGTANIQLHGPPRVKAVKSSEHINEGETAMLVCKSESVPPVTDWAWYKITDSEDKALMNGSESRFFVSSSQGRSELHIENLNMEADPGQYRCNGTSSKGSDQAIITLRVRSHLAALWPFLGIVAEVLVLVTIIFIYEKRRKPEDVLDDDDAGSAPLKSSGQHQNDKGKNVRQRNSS

Legend:
VEGFR-2 [1] = target: T1, VEGFR-2 (human, UniProt P35968 20-1356); assay: co-immunoprecipitation from HMEC and M10 lysates; in situ PLA confirmed proximity at the cell surface
T1 construct: Endogenous receptor of human cells (HMEC, M10, MDA-MB-231, BLM); the whole entry is named; also called KDR

VEGFR-2 [2] = target: T1, VEGFR-2; assay: in situ PLA after EMMPRIN siRNA (FIG. 2)
pVEGFR-2 (human) [3] = target: pVEGFR-2 (human) (UniProt P35968); assay: in situ PLA on BLM xenograft sections
VEGFR-2 [4] = target: T1, VEGFR-2; assay: co-IP and in situ PLA, HMEC and M10 cells (FIG. 1)
pVEGFR-2 (human) [5] = target: pVEGFR-2 (human) (UniProt P35968); assay: in situ PLA, cells and human cancer tissues (FIG. 3)
pVEGFR-2 (human) [6] = target: pVEGFR-2 (human) (UniProt P35968); assay: in situ PLA on BLM xenograft sections (FIG. 4E)
VEGFR-2 [7] = target: T1, VEGFR-2; assay: co-IP and in situ PLA after EMMPRIN siRNA; HMEC, MDA-MB-231, M10 (BLM not shown)
pVEGFR-2 (human) [8] = target: pVEGFR-2 (human) (UniProt P35968); assay: in situ PLA, HMEC and M10 cells; human breast cancer and melanoma tissues

Measured: binding

EMMPRIN/CD147 (from UniProt P35613 140-385) (receptor)
binds: all assays above
